Assay: general procedure: peptide synthesis; pentafluorophenyl ester (pentafluorophenol / N,N' dicyclohexyl carbodiimide)
Details: late stage modification step, trifluoroacetate

Substance “(pentyloxy)phenyl-piperazinyl-phenyl Stage B” has a step yield of 42%.

Source: patent publication US20040072737A1 (Aventis Pharma S.A., priority 1997, published 2004)
